Measured values: PubChem BioAssay (EPA / NIEHS)
Where “and” joins values, the source holds several entries; their conditions need not be identical. Equal entries are not always repeated. This list was built around the results that the source calls inconclusive (neither active nor inactive); the mix of calls is not that of the screen. Potencies of inconclusive entries are doubtful fits and often do not repeat. Calls of active or inactive are those of the source. The calls were made as follows: active = hit-call score of the fitted dose curve at least 0.9, where 1 is the maximum; inconclusive = response in the unintended direction; inactive = score below 0.9.

Sequences of proteins named here, by UniProt entry; tags and fusion partners are left off. A change or cut given only in a name is not applied to a line headed by its entry.
UniProt Q9UNQ0: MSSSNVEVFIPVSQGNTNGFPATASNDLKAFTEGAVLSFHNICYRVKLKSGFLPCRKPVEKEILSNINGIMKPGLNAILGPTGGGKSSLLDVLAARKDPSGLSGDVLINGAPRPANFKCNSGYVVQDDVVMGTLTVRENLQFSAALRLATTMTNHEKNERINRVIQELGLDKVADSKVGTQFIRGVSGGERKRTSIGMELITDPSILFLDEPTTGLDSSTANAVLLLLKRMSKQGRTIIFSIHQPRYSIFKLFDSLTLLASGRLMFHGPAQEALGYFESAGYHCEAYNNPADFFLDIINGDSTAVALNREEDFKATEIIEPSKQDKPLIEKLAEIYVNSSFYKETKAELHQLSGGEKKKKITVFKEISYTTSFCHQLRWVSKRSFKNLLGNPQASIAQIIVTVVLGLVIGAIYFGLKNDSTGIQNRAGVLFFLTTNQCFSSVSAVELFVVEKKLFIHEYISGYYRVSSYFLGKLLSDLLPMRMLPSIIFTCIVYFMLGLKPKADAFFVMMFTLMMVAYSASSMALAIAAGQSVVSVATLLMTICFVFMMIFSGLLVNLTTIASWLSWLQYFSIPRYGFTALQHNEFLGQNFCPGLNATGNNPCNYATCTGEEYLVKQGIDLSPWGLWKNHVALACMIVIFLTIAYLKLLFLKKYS
UniProt P33261, whole entry, looked up: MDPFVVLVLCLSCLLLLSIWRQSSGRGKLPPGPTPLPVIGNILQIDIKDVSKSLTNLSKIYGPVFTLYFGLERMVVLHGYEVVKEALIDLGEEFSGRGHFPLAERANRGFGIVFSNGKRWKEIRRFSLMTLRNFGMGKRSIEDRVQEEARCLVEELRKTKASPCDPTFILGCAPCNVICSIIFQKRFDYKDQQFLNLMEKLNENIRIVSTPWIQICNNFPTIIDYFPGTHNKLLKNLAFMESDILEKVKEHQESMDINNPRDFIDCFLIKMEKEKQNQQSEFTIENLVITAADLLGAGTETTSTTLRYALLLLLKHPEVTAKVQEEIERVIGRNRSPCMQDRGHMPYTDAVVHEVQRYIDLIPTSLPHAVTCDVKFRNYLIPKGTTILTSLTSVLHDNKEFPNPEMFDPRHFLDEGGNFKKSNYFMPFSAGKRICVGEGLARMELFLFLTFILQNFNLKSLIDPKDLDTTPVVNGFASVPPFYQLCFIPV
UniProt P11712, whole entry, looked up: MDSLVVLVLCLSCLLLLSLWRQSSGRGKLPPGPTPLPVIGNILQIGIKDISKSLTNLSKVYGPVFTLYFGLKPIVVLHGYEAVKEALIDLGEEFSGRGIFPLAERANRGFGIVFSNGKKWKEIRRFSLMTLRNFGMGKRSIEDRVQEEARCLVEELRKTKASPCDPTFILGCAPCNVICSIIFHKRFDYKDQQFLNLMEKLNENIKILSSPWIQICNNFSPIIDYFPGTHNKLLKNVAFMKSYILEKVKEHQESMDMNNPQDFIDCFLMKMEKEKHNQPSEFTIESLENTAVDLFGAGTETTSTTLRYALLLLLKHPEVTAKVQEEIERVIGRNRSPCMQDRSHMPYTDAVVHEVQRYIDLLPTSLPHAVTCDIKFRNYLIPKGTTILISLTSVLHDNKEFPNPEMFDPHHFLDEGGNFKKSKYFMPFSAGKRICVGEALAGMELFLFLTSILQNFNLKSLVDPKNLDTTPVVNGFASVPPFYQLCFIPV
UniProt P04406: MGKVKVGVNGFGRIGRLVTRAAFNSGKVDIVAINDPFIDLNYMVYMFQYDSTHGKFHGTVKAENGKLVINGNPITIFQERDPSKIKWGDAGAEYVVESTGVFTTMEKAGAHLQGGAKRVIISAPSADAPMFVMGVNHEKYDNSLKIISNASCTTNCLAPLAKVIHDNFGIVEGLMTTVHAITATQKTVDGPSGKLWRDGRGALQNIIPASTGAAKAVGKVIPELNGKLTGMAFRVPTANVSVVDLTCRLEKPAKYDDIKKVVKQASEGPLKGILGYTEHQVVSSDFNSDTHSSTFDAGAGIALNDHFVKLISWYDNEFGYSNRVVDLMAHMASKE
UniProt P08684, whole entry, looked up: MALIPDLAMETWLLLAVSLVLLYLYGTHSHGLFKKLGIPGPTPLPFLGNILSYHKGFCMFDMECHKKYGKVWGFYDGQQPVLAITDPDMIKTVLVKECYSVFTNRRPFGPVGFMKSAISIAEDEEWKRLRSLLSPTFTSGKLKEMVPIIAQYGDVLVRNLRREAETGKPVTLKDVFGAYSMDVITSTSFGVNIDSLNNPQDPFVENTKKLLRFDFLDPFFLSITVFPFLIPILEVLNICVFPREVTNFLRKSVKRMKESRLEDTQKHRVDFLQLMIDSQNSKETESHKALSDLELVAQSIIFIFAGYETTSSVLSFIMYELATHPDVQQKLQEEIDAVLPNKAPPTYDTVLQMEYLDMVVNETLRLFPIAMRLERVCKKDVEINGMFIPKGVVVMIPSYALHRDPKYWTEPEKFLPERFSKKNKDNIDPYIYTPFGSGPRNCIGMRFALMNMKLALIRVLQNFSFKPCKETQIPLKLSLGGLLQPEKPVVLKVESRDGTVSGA
UniProt P20813: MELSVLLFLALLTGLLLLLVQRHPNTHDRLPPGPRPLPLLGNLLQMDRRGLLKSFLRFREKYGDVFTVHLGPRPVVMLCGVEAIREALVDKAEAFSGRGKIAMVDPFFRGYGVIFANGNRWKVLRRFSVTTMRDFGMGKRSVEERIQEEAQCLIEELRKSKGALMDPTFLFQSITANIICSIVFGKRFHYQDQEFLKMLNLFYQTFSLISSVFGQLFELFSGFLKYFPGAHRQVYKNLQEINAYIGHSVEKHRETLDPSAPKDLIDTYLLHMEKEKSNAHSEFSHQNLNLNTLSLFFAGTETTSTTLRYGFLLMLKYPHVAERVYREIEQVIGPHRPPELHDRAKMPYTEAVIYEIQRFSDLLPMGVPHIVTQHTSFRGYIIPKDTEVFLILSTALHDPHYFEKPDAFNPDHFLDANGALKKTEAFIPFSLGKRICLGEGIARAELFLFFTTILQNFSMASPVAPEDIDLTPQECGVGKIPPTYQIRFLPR

Legend:
[1] = read-out: Broad substrate specificity ATP-binding cassette transporter ABCG2 (Homo sapiens) (UniProt Q9UNQ0); assay: CLD_ABCG2_24hr: CellzDirect (CLD) Gene Expression Assay for ABC Transporter (ABCG2) at 24 hours (AID 2283685);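 as to AC50: AC50 is for induction meaning signal gain over DMSO vehicle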
Outline: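 Primary human hepatocytes were dosed daily with ToxCast chemicals at multiple concentrations (vehicle 0.2% DMSO). ABCG2 mRNA was measured at 24 h by qNPA chemiluminescence; induction was scored as gain of signal versus DMSO.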

[2] = read-out: Cytochrome P450 2C19 (Homo sapiens) (UniProt P33261); assay: CLD_CYP2C19_24hr: CellzDirect (CLD) Gene Expression Assay for xenobiotic metabolism (CYP2C19) at 24 hours (AID 2283687)
Outline: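 Primary human hepatocytes (two donor preparations) dosed daily with fresh test chemical in 0.2% DMSO vehicle; CYP2C19 mRNA induction measured at 24 h by quantitative nuclease protection assay with chemiluminescence, fitted for gain of signal versus DMSO.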

[3] = read-out: Cytochrome P450 2C9 (Homo sapiens) (UniProt P11712); assay: CLD_CYP2C9_24hr: CellzDirect (CLD) Gene Expression Assay for xenobiotic metabolism (CYP2C9) at 24 hours (AID 2283688);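 as to AC50: potency for induction meaning a rise in CYP2C9 mRNA over DMSO vehicle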
Outline: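 Primary human hepatocytes from two donor preparations, dosed daily for two days at multiple concentrations; vehicle 0.2% DMSO. CYP2C9 mRNA induction at 24 h measured by qNPA chemiluminescence relative to DMSO; cytotoxicity annotated from morphology.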

[4] = read-out: organic anion transporter (SLCO1B1), SLCO1B1 (gene 10599); assay: CLD_SLCO1B1_24hr: CellzDirect (CLD) Gene Expression Assay for organic anion transporter (SLCO1B1) at 24 hours (AID 2283690)
Outline: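 Primary human hepatocytes (two donor preparations) dosed daily for two days with chemicals at multiple concentrations, 0.2% DMSO vehicle. SLCO1B1 mRNA at 24 h measured by qNPA chemiluminescence; induction fitted relative to DMSO.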

[5] = read-out: HMG-CoA synthase (HMGCS2), HMGCS2 (gene 3158); assay: CLD_HMGCS2_24hr: CellzDirect (CLD) Gene Expression Assay for HMG-CoA synthase (HMGCS2) at 24 hours (AID 2283691)
Outline: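 Primary human hepatocytes from two donor preparations, dosed daily with fresh solutions; vehicle 0.2% DMSO, 24 h harvest. HMGCS2 mRNA quantified by qNPA with S1 nuclease digestion and chemiluminescence; gain fitted versus DMSO, cytotoxicity annotated by morphology.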

[6] = read-out: Glyceraldehyde-3-phosphate dehydrogenase (Homo sapiens) (UniProt P04406); assay: CLD_GAPDH_24hr: CellzDirect (CLD) Gene Expression Assay for Baseline Control (Glyceraldehyde 3-phosphate dehydrogenase) at 24 hours (AID 2283692)
Outline: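 Primary human hepatocytes (two donor preparations) dosed daily for two days, 0.2% DMSO vehicle; GAPDH mRNA measured at 24 h by qNPA chemiluminescence as a background control, gain-of-signal fitted against DMSO.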

[7] = read-out: alkyl and aryl transferase (GSTA2), GSTA2 (gene 2939); assay: CLD_GSTA2_24hr: CellzDirect (CLD) Gene Expression Assay for alkyl and aryl transferase (GSTA2) at 24 hours (AID 2283693)
Outline: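 Primary human hepatocytes (two donor preparations) dosed daily for two days with chemicals at multiple concentrations (vehicle 0.2% DMSO); GSTA2 mRNA at 24 h measured by qNPA chemiluminescence, gain-of-signal versus DMSO.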

[8] = read-out: ABC Transporter (ABCB1), ABCB1 (gene 5243); assay: CLD_ABCB1_48hr: CellzDirect (CLD) Gene Expression Assay for ABC Transporter (ABCB1) at 48 hours (AID 2283695);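 also: potency for induction meaning increase of mRNA over DMSO vehicle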
Outline: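 Primary human hepatocytes from two donor preparations dosed daily on two consecutive days with 0.2% DMSO vehicle. Harvest at 48 h. ABCB1 mRNA quantified by qNPA with chemiluminescence and fitted for gain of signal versus DMSO.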

[9] = read-out: ABC Transporter (ABCB11), ABCB11 (gene 8647); assay: CLD_ABCB11_48hr: CellzDirect (CLD) Gene Expression Assay for ABC Transporter (ABCB11) at 48 hours (AID 2283697)
Outline: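 Primary human hepatocytes from two donor preparations dosed daily for two days at multiple concentrations; 0.2% DMSO vehicle. ABCB11 mRNA at 48 h by quantitative nuclease protection assay, chemiluminescence; fitted for induction versus DMSO.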

[10] = read-out: Cytochrome P450 2C19 (Homo sapiens) (UniProt P33261); assay: CLD_CYP2C19_48hr: CellzDirect (CLD) Gene Expression Assay for xenobiotic metabolism (CYP2C19) at 48 hours (AID 2283700)
Outline: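 Primary human hepatocytes (two donor preparations) dosed daily for two days, harvested at 48 h; CYP2C19 mRNA induction measured by qNPA chemiluminescence. Gain-of-signal fitted relative to 0.2% DMSO vehicle as baseline.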

[11] = CLD_ACTIN_48hr: CellzDirect (CLD) Gene Expression Assay for Baseline Control (Actin) at 48 hours (AID 2283702)
Outline: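 Primary human hepatocytes (two donor preparations) dosed daily for two days with ToxCast chemicals at multiple concentrations versus 0.2% DMSO vehicle; harvested at 48 h. Actin mRNA measured as a background control by quantitative nuclease protection assay with chemiluminescence.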

[12] = read-out: Broad substrate specificity ATP-binding cassette transporter ABCG2 (Homo sapiens) (UniProt Q9UNQ0); assay: CLD_ABCG2_48hr: CellzDirect (CLD) Gene Expression Assay for ABC Transporter (ABCG2) at 48 hours (AID 2283704);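 as to AC50: potency for induction of ABCG2 mRNA above the DMSO baseline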
Outline: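 Primary human hepatocytes from two donors, dosed daily for 2 days, 0.2% DMSO vehicle, several concentrations. ABCG2 mRNA at 48 h by qNPA chemiluminescence, gain fitted versus DMSO; cytotoxicity flagged by morphology.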

[13] = read-out: Glyceraldehyde-3-phosphate dehydrogenase (Homo sapiens) (UniProt P04406); assay: CLD_GAPDH_48hr: CellzDirect (CLD) Gene Expression Assay for Baseline Control (Glyceraldehyde 3-phosphate dehydrogenase) at 48 hours (AID 2283706)
Outline: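 Primary human hepatocytes dosed daily for two days with fresh chemical at multiple concentrations, 0.2% DMSO vehicle; GAPDH mRNA measured at 48 h by quantitative nuclease protection assay with chemiluminescence, fitted upward relative to DMSO as background control.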

[14] = read-out: organic anion transporter (SLCO1B1), SLCO1B1 (gene 10599); assay: CLD_SLCO1B1_48hr: CellzDirect (CLD) Gene Expression Assay for organic anion transporter (SLCO1B1) at 48 hours (AID 2283707)
Outline: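 Primary human hepatocytes from two donor preparations dosed daily for two days with multiple concentrations, 0.2% DMSO vehicle. SLCO1B1 mRNA at 48 h by quantitative nuclease protection assay, chemiluminescence; gain-of-signal fitted versus DMSO.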

[15] = read-out: alkyl and aryl transferase (GSTA2), GSTA2 (gene 2939); assay: CLD_GSTA2_48hr: CellzDirect (CLD) Gene Expression Assay for alkyl and aryl transferase (GSTA2) at 48 hours (AID 2283708);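 also: active means mRNA induction above DMSO vehicle baseline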
Outline: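 Primary human hepatocytes dosed daily for two days (0.2% DMSO vehicle), harvested at 48 h. GSTA2 mRNA induction measured by quantitative nuclease protection assay with chemiluminescent imaging, fitted for gain of signal relative to DMSO.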

[16] = read-out: Cytochrome P450 3A4 (Homo sapiens) (UniProt P08684); assay: CLD_CYP3A4_24hr: CellzDirect (CLD) Gene Expression Assay for xenobiotic metabolism (CYP3A4) at 24 hours (AID 2283689)
Outline: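 Primary human hepatocytes from two donors dosed daily with fresh compound for two days, 0.2% DMSO vehicle. CYP3A4 mRNA at 24 hr by qNPA chemiluminescence; gain-of-signal fit versus DMSO, cytotoxicity flagged by morphology.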

[17] = read-out: Cytochrome P450 2B6 (Homo sapiens) (UniProt P20813); assay: CLD_CYP2B6_48hr: CellzDirect (CLD) Gene Expression Assay for xenobiotic metabolism (CYP2B6) at 48 hours (AID 2283699);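 also: actives raise transcript level above DMSO so potency reflects induction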
Outline: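 Primary human hepatocytes dosed daily for two days over multiple concentrations, 0.2% DMSO vehicle; CYP2B6 mRNA quantified at 48 h by qNPA chemiluminescence. Induction fitted as gain of signal versus DMSO; cytotoxicity annotated by morphology.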

[18] = read-out: xenobiotic metabolism (CYP1A1), CYP1A1 (gene 1543); assay: CLD_CYP1A1_48hr: CellzDirect (CLD) Gene Expression Assay for xenobiotic metabolism (CYP1A1) at 48 hours (AID 2283705)
Outline: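 Primary human hepatocytes from two donors dosed daily for two days at multiple concentrations, 0.2% DMSO vehicle; CYP1A1 mRNA induction at 48 h by qNPA chemiluminescence. Cytotoxicity noted by phase-contrast morphology.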

[19] = read-out: sulfotransferase (SULT2A), SULT2A1 (gene 6822); assay: CLD_SULT2A_24hr: CellzDirect (CLD) Gene Expression Assay for sulfotransferase (SULT2A) at 24 hours (AID 2283694);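 as to AC50: potency for increased SULT2A1 mRNA level as induction over DMSO baseline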
Outline: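 Primary human hepatocytes from two donor preparations were dosed daily with fresh solutions, vehicle 0.2% DMSO. At 24 h, lysates went to quantitative nuclease protection (qNPA) with S1 digestion and chemiluminescent readout. Cytotoxicity was annotated from phase-contrast morphology.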

Measured: AC50

CC(C)NC(=O)N1CC(=O)N(c2cc(Cl)cc(Cl)c2)C1=O
inactive: [3]
inconclusive: [1] 37.7 µM | [2] 20 µM | [4] 20 µM | [5] 20 µM | [6] 20 µM | [7] 20 µM | [8] 20 µM | [9] 20 µM | [10] 20 µM | [11] 20 µM | [12] 20 µM | [13] 20 µM | [14] 20 µM | [15] 20 µM

N#Cc1cc(Br)c(O)c(Br)c1
inactive: [12] | [18] | [13]
inconclusive: [1] 36 µM | [2] 20 µM | [3] 34.3 µM | [16] 20 µM | [5] 0.0004 µM | [9] 20 µM | [17] 3.97 µM | [10] 20 µM | [11] 20 µM | [14] 20 µM

COc1nc(C)nc(NC(=O)NS(=O)(=O)c2ccccc2Cl)n1
inconclusive: [3] 0.00112 µM | [8] 20 µM | [17] 0.000854 µM | [10] 20 µM | [11] 20 µM | [18] 20 µM | [15] 20 µM
inactive: [1] | [3] | [9] | [10] | [13]

N#CC(CCc1ccc(Cl)cc1)(Cn1cncn1)c1ccccc1 (stereo not given)
inconclusive: [4] 20 µM | [5] 38 µM | [13] 20 µM | [14] 20 µM
inactive: [1] | [2] | [7] | [19]

CNC(=S)S
inactive: [11] | [13]
inconclusive: [1] 20 µM | [2] 2.4 µM | [3] 0.763 µM | [16] 0.0799 µM | [5] 3.97 µM | [7] 20 µM | [8] 20 µM | [17] 5.31 µM | [10] 3.97 µM | [14] 6.4 µM

OC(c1ccc(Cl)cc1)(c1ccc(Cl)cc1)C(Cl)(Cl)Cl
inactive: [1] | [3] | [4] | [14]
inconclusive: [2] 20 µM | [6] 20 µM | [7] 9.41 µM | [10] 20 µM | [11] 20 µM | [13] 20 µM
active: [19] 20 µM

O=[N+]([O-])c1c(Cl)c(Cl)c(Cl)c(Cl)c1Cl
inactive: [1] | [11]
inconclusive: [2] 20 µM | [4] 20 µM | [5] 20 µM | [6] 20 µM | [8] 3.97 µM | [9] 20 µM | [10] 20 µM | [13] 0.256 µM

CC[C@H](C)[C@H]1O[C@]2(C=C[C@@H]1C)C[C@@H]1C[C@@H](C/C=C(\C)[C@@H](O[C@H]3C[C@H](OC)[C@@H](O[C@H]4C[C@H](OC)[C@@H](O)[C@H](C)O4)[C@H](C)O3)[C@@H](C)/C=C/C=C3\CO[C@@H]4[C@H](O)C(C)=C[C@@H](C(=O)O1)[C@]34O)O2 (tested in a mixture with another compound)
inconclusive: [3] 0.00642 µM | [5] 1.9 µM | [17] 2 µM
inactive: [2] | [10] | [11] | [13]
active: [1] 4.64 µM | [19] 12.3 µM | [8] 1.01 µM | [9] 0.206 µM | [12] 3.14 µM

COC(=O)C(C)Oc1ccc(Oc2ccc(Cl)cc2Cl)cc1 (stereo not given)
inconclusive: [1] 20 µM and 3.3 µM | [3] 20 µM | [8] 20 µM | [9] 20 µM | [11] 35.3 µM and 20 µM | [18] 20 µM | [13] 20 µM | [15] 20 µM and 3.97 µM
inactive: [1] | [7] | [9] | [10]

N#Cc1nn(-c2c(Cl)cc(C(F)(F)F)cc2Cl)c(N)c1S(=O)C(F)(F)F (stereo not given)
inconclusive: [2] 35.6 µM | [3] 37.5 µM | [4] 20 µM | [5] 11 µM | [6] 3.59 µM | [10] 29.1 µM | [14] 20 µM
active: [8] 4.65 µM | [15] 4.25 µM
inactive: [1] | [11] | [13]

CCCOCC(=Nc1ccc(Cl)cc1C(F)(F)F)n1ccnc1
inactive: [6] | [7]
inconclusive: [2] 20 µM | [3] 20 µM | [4] 4.97 µM | [5] 32.7 µM | [19] 20 µM | [9] 20 µM | [10] 2.81 µM
active: [1] 20 µM | [12] 20 µM | [18] 6.01 µM | [15] 20 µM
